Reference: US20220411496A1
Results are given in words; binding and its absence hold for the method and conditions named. Some binding calls cover weakened binding; strength is not graded here.

Key:
[1] = target: T1, mouse LILRB4 on tumor-infiltrating myeloid cells (B16 tumors) (mouse) (UniProt Q64281); experiment: flow cytometry on digested B16 mouse tumors
T1 sequence (looked up): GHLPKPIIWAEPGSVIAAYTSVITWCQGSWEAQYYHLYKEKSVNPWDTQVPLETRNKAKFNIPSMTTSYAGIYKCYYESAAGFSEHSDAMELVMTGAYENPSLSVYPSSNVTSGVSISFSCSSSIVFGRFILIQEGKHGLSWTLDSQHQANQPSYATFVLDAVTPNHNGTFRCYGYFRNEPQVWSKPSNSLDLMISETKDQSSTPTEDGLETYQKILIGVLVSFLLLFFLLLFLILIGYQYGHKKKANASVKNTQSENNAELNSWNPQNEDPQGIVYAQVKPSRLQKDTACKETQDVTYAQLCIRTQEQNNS

[2] = target: T1, mouse LILRB4 on tumor-infiltrating myeloid cells (B16 tumors) (mouse); experiment: flow cytometry on ectopic mouse tumors
[3] = target: T1, mouse LILRB4 on tumor-infiltrating myeloid cells (B16 tumors) (mouse); experiment: flow cytometry of digested B16 melanoma mouse tumors, overlay on isotype

Measured: binding

B1: anti-LILRB4 (Pi1.5 Clone 1) (antibody, human IgG1, kappa, V domains shown)
VH: EVQLVESGGGLVQPGGSLRLSCAASGFNLSSSYMHWVRQAPGKGLEWVASISSSYGSTYYADSVKGRFTISADTSKNTAYLQMNSLRAEDTAVYYCARAHYVWYGSVYAHSYGGMDYWGQGTLVTVSS
VL: DIQMTQSPSSLSASVGDRVTITCRASQSVSSAVAWYQQKPGKAPKLLIYSASSLYSGVPSRFSGSRSGTDFTLTISSLQPEDFATYYCQQWSGGYSGLITFGQGTKVEIKR
binds: all assays above
